Assay results as given in the supplement of paper PMC8960247.
Structures can show the parent of a compound that is named as a salt. Single values of this set are uncertain.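 The cells are immortalized human renal angiomyolipoma cells carrying an empty vector, so TSC2 stays lost. Viability was read by a luminescent ATP assay and normalized to vehicle-treated wells on each plate, in low-serum medium where TSC2-rescued cells do not grow.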

Test system: 621-102 (TSC2-deficient)
Experiment: relative viability vs DMSO (fraction); higher = less cytotoxic
Settings: serum: 0.1% FBS, 72 h

Row | SMILES | relative viability (0.0128 nM) | relative viability (0.064 nM) | relative viability (0.32 nM) | relative viability (1.6 nM) | relative viability (8 nM) | relative viability (40 nM) | relative viability (200 nM) | relative viability (1000 nM) | relative viability (5000 nM)
1 | O=C(Nc1cccnc1)N1CCC(Cc2cccc(Oc3ccc(C(F)(F)F)cn3)c2)CC1 [PF-3845] | 0.882 | 0.993 | 0.922 | 0.853 | 0.656 | 0.608 | 0.655 | 0.734 | 0.41
2 | Oc1cccc(-c2nc(N3CCOCC3)c3oc4ncccc4c3n2)c1 [PI-103] | 0.925 | 0.893 | 0.844 | 0.949 | 0.841 | 0.645 | 0.765 | 0.569 | 0.478
3 | COc1ccc2c3n(c(=NC(=O)c4cccnc4)nc2c1OC)CCN3 [PIK-90] | 0.68 | 0.764 | 0.908 | 0.952 | 0.784 | 0.62 | 0.711 | 0.724 | 0.561
4 | CC(=O)Nc1nc(C)c(-c2ccc(Cl)c(S(=O)(=O)NCCO)c2)s1 [PIK-93] | 0.867 | 0.894 | 1.04 | 0.99 | 0.912 | 0.927 | 0.89 | 0.628 | 0.507
5 | Cc1ccccc1-n1c(Cn2ncc3c(N)ncnc32)nc2cccc(C)c2c1=O [PIK-293] | 0.695 | 0.677 | 0.639 | 0.783 | 0.696 | 0.75 | 0.747 | 0.668 | 0.741
6 | CN(C)C1CCN(C(=O)c2ccc(NC(=O)Nc3ccc(-c4nc(N5CCOCC5)nc(N5CCOCC5)n4)cc3)cc2)CC1 [PKI587] | 0.219 | 0.737 | 0.717 | 0.765 | 0.518 | 0.265 | 0.0842 | 0.0462 | 0.0403
7 | CCCS(=O)(=O)Nc1ccc(F)c(C(=O)c2c[nH]c3ncc(Cl)cc23)c1F [PLX-4720] | 1.39 | 1.47 | 1.38 | 0.752 | 0.534 | 0.735 | 0.874 | 1.02 | 0.445
8 | Nc1ncnc2c1c(-c1cnc3[nH]ccc3c1)nn2C1CCCC1 [PP121] | 0.736 | 0.774 | 0.744 | 0.825 | 0.813 | 0.814 | 0.753 | 0.472 | 0.157
9 | CC(C)n1nc(-c2cc3cc(O)ccc3[nH]2)c2c(N)ncnc21 [PP242] | 0.701 | 0.769 | 0.744 | 0.685 | 0.64 | 0.728 | 0.669 | 0.635 | 0.274
10 | CC(=O)O[C@H]1C(=O)[C@@]2(C)[C@H]([C@H](OC(=O)c3ccccc3)[C@]3(O)C[C@H](OC(=O)[C@H](O)[C@@H](NC(=O)c4ccccc4)c4ccccc4)C(C)=C1C3(C)C)[C@]1(OC(C)=O)CO[C@@H]1C[C@@H]2O [Paclitaxel] | 0.96 | 0.959 | 0.878 | 0.626 | 0.0659 | 0.0335 | 0.0342 | 0.0411 | 0.0376
11 | CC(=O)O[C@H]1C[C@@H]2CC[C@@H]3[C@H](CC[C@@]4(C)[C@H]3C[C@H]([N+]3(C)CCCCC3)[C@@H]4OC(C)=O)[C@@]2(C)C[C@@H]1[N+]1(C)CCCCC1 [Pancuronium dibromide] | 0.705 | 0.735 | 0.821 | 0.86 | 0.852 | 0.818 | 0.843 | 0.693 | 0.308
12 | Cc1[nH]c2ccccc2c1CCNCc1ccc(/C=C/C(=O)NO)cc1 [Panobinostat (LBH589)] | 0.358 | 0.341 | 0.454 | 0.616 | 0.619 | 0.0972 | 0.0118 | 0.00934 | 0.0118
13 | Cc1ccc(Nc2nccc(N(C)c3ccc4c(C)n(C)nc4c3)n2)cc1S(N)(=O)=O [Pazopanib HCl] | 0.896 | 0.78 | 0.866 | 0.761 | 1.02 | 1.01 | 0.756 | 0.643 | 0.00858
14 | CCOc1cc2ncc(C#N)c(Nc3ccc(F)c(Cl)c3)c2cc1NC(=O)/C=C/CN(C)C [Pelitinib (EKB-569)] | 0.833 | 0.88 | 0.718 | 0.758 | 0.776 | 0.878 | 0.716 | 0.0202 | 0.00914
15 | Nc1nc2[nH]cc(CCc3ccc(C(=O)N[C@@H](CCC(=O)O)C(=O)O)cc3)c2c(=O)[nH]1 [Pemetrexed] | 1.08 | 0.992 | 1.01 | 1.06 | 0.953 | 0.788 | 0.0392 | 0.0245 | 0.0261
16 | CCC[C@H](N[C@@H](C)C(=O)N1[C@H](C(=O)O)C[C@@H]2CCCC[C@@H]21)C(=O)OCC [Perindopril Erbumine] | 0.647 | 0.724 | 0.758 | 0.707 | 0.636 | 0.681 | 0.614 | 0.654 | 0.484
17 | N=C(N)NC(=N)NCCc1ccccc1 [Phenformin HCl] | 0.495 | 0.688 | 0.687 | 0.807 | 0.687 | 0.822 | 0.768 | 0.552 | 0.643
18 | O=C1N=C(O)NC1(c1ccccc1)c1ccccc1 [Phenytoin sodium] | 1.07 | 1.06 | 1.11 | 1.07 | 0.99 | 0.792 | 0.909 | 0.793 | 0.839
19 | O=C1NC(=O)C(c2ccccc2)(c2ccccc2)N1 [Phenytoin] | 0.527 | 0.798 | 0.841 | 0.735 | 0.611 | 0.748 | 0.665 | 0.828 | 0.583
20 | COc1ccc(-c2nc3cc(C4=NNC(=O)CC4C)ccc3[nH]2)cc1 (configuration not stated) [Pimobendan] | 0.926 | 0.882 | 0.967 | 0.887 | 0.82 | 0.825 | 0.764 | 0.744 | 0.738
21 | Nc1cccc2c1C(=O)N(C1CCC(=O)NC1=O)C2=O (configuration not stated) [Pomalidomide] | 0.786 | 0.835 | 0.876 | 0.657 | 0.23 | 0.191 | 0.198 | 0.157 | 0.00966
22 | CCCN[C@H]1CCc2nc(N)sc2C1 [Pramipexole dihydrochloride monohydrate] | 0.881 | 0.868 | 0.883 | 0.875 | 0.885 | 0.886 | 0.81 | 0.77 | 0.763

Row | SMILES | relative viability (0.0128 nM) | relative viability (0.064 nM) | relative viability (0.32 nM) | relative viability (1.6 nM) | relative viability (8 nM) | relative viability (40 nM) | relative viability (200 nM) | relative viability (1000 nM) | relative viability (5000 nM)
23 | CCc1nc(N)nc(N)c1-c1ccc(Cl)cc1 [Pyrimethamine] | 0.737 | 0.741 | 0.843 | 0.771 | 0.838 | 0.782 | 0.794 | 0.689 | 0.788
24 | COc1cc(Nc2ncc(F)c(Nc3ccc4c(n3)NC(=O)C(C)(C)O4)n2)cc(OC)c1OC [R406(free base)] | 1.04 | 0.819 | 0.759 | 0.898 | 0.886 | 0.79 | 0.674 | 0.512 | 0.181
25 | COc1cc(Nc2ncc(F)c(Nc3ccc4c(n3)NC(=O)C(C)(C)O4)n2)cc(OC)c1OC [R406] | 0.676 | 0.704 | 0.769 | 0.659 | 0.705 | 0.836 | 0.76 | 0.472 | 0.246
26 | Cn1c(Nc2ccc(C(F)(F)F)cc2)nc2cc(Oc3ccnc(-c4ncc(C(F)(F)F)[nH]4)c3)ccc21 [RAF265] | 0.802 | 0.82 | 0.848 | 0.828 | 0.811 | 0.62 | 0.208 | 0.0928 | 0.0371
27 | CC(=O)SCC(Cc1ccccc1)C(=O)NCC(=O)OCc1ccccc1 (configuration not stated) [Racecadotril] | 0.638 | 0.778 | 0.834 | 0.894 | 0.915 | 0.89 | 0.971 | 0.829 | 0.87
28 | FC(F)(F)c1ccc(Nc2nc3ccc(Oc4ccnc(-c5ncc(C(F)(F)F)[nH]5)c4)cc3[nH]2)cc1 [Raf265 derivative] | 0.839 | 0.823 | 0.805 | 0.857 | 0.746 | 0.697 | 0.546 | 0.0787 | 0.00509
29 | Cc1nc(=O)c2cc(CN(C)c3ccc(C(=O)N[C@@H](CCC(=O)O)C(=O)O)s3)ccc2[nH]1 [Raltitrexed] | 0.974 | 0.905 | 0.866 | 1.11 | 0.922 | 0.958 | 0.906 | 0.867 | 0.727
30 | CCOC(=O)[C@H](CCc1ccccc1)N[C@@H](C)C(=O)N1[C@H](C(=O)O)C[C@@H]2CCC[C@@H]21 [Ramipril] | 0.875 | 0.838 | 0.851 | 0.832 | 0.767 | 0.754 | 0.775 | 0.753 | 0.556
31 | CNC(=C[N+](=O)[O-])NCCSCc1ccc(CN(C)C)o1 [Ranitidine] | 0.862 | 0.852 | 0.861 | 0.912 | 0.781 | 0.848 | 0.721 | 0.2 | 0.0164
32 | CO[C@H]1C[C@@H]2CC[C@@H](C)[C@@](O)(O2)C(=O)C(=O)N2CCCC[C@H]2C(=O)O[C@H]([C@H](C)C[C@@H]2CC[C@@H](O)[C@H](OC)C2)CC(=O)[C@H](C)/C=C(\C)[C@@H](O)[C@@H](OC)C(=O)[C@H](C)C[C@H](C)/C=C/C=C/C=C/1C [Rapamycin (Sirolimus)] | 0.856 | 0.673 | 0.378 | 0.299 | 0.321 | 0.222 | 0.173 | 0.147 | 0.186
33 | CNC(=O)c1cc(Oc2ccc(NC(=O)Nc3ccc(Cl)c(C(F)(F)F)c3)c(F)c2)ccn1 [Regorafenib (BAY 73-4506)] | 0.691 | 0.662 | 0.662 | 0.741 | 0.794 | 0.908 | 0.734 | 0.17 | 0.00666
34 | CC(NCCc1ccc(O)cc1)C(O)c1ccc(O)cc1 (configuration not stated) [Ritodrine HCl] | 0.857 | 0.364 | 0.834 | 0.885 | 0.836 | 0.739 | 0.759 | 0.724 | 0.706
35 | CC(C)c1nc(CN(C)C(=O)N[C@H](C(=O)N[C@@H](Cc2ccccc2)C[C@H](O)[C@H](Cc2ccccc2)NC(=O)OCc2cncs2)C(C)C)cs1 [Ritonavir] | 0.701 | 0.779 | 0.611 | 0.674 | 0.619 | 0.555 | 0.562 | 0.561 | 0.63
36 | O=C(NC[C@H]1CN(c2ccc(N3CCOCC3=O)cc2)C(=O)O1)c1ccc(Cl)s1 [Rivaroxaban] | 0.853 | 0.83 | 0.771 | 0.778 | 0.727 | 0.763 | 0.794 | 0.758 | 0.65
37 | CC[C@H](CO)Nc1nc(NCc2ccccc2)c2ncn(C(C)C)c2n1 [Roscovitine (Seliciclib,CYC202)] | 0.939 | 0.922 | 0.961 | 0.691 | 0.879 | 0.962 | 0.806 | 0.839 | 0.637
38 | CN(CCOc1ccc(CC2SC(=O)NC2=O)cc1)c1ccccn1 (configuration not stated) [Rosiglitazone] | 0.74 | 0.835 | 0.803 | 0.78 | 0.796 | 0.747 | 0.81 | 0.742 | 0.614
39 | Cc1ccc(S(=O)(=O)OCC(=O)Nc2ccc(C(=O)O)c(O)c2)cc1 [S31-201] | 0.851 | 0.769 | 0.822 | 0.835 | 0.783 | 0.727 | 0.823 | 0.84 | 0.954
40 | COc1ccc([C@H]2CNC(=O)C2)cc1OC1CCCC1 [S-(+)-Rolipram] | 0.765 | 0.917 | 0.866 | 0.879 | 0.84 | 0.783 | 0.735 | 0.749 | 0.752
41 | CCCCc1nc2cc(/C=C/C(=O)NO)ccc2n1CCN(CC)CC [SB939] | 0.869 | 0.751 | 0.757 | 0.723 | 0.677 | 0.168 | 0.00615 | 0.00446 | 0.00518
42 | CN1CCC(CNc2ccc3ncc(-c4cccc(OC(F)(F)F)c4)n3n2)CC1 [SGI-1776] | 0.871 | 0.966 | 0.907 | 0.809 | 0.736 | 0.782 | 0.777 | 0.16 | 0.029
43 | Cn1cc(-c2ccc3nnc(Sc4ccc5ncccc5c4)n3n2)cn1 [SGX-523] | 0.841 | 0.869 | 0.878 | 0.762 | 0.746 | 0.692 | 0.154 | 0.00611 | 0.00786

Complete entries from above. Order of values: relative viability (0.0128 nM)	relative viability (0.064 nM)	relative viability (0.32 nM)	relative viability (1.6 nM)	relative viability (8 nM)	relative viability (40 nM)	relative viability (200 nM)	relative viability (1000 nM)	relative viability (5000 nM)
O=C1NC(=O)C(c2ccccc2)(c2ccccc2)N1 [Phenytoin] is listed with 0.527	0.798	0.841	0.735	0.611	0.748	0.665	0.828	0.583
CC(=O)O[C@H]1C[C@@H]2CC[C@@H]3[C@H](CC[C@@]4(C)[C@H]3C[C@H]([N+]3(C)CCCCC3)[C@@H]4OC(C)=O)[C@@]2(C)C[C@@H]1[N+]1(C)CCCCC1 [Pancuronium dibromide] is listed with 0.705	0.735	0.821	0.86	0.852	0.818	0.843	0.693	0.308
